# In all, about 330,000 compounds went through this assay and about 20 (0.006%) were called active. Inconclusive means that the source gave no clear call. Such entries were picked first, then a sample of the others. Calls follow the shape of the dose curve; as a rule, active = well fitted inhibition curve with a large enough effect; inconclusive = small, poorly fitted or top-dose-only effect, or effect the other way; inactive = flat fitted curve, though single readings scatter. A potency beside an inconclusive call is a rough fit, not a confirmed value.
# Amino acid sequences for entries named in this document (tags omitted). A change or cut given only in a name is not applied to a line headed by its entry.
# UniProt O00167: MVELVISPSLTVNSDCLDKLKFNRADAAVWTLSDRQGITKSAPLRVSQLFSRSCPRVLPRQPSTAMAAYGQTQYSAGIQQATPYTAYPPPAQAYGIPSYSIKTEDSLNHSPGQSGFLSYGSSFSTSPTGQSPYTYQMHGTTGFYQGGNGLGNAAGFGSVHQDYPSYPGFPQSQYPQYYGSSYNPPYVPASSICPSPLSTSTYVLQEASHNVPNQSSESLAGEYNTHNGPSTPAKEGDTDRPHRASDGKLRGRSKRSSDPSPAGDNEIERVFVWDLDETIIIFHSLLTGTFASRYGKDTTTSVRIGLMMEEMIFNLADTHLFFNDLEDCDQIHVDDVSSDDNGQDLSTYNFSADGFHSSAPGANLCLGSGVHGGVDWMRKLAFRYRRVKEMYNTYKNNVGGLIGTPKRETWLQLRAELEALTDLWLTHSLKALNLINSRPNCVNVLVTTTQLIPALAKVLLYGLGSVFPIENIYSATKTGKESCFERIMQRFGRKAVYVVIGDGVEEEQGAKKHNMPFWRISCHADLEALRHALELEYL
# Target: Protein phosphatase EYA2 (Homo sapiens) (UniProt O00167)
# Assay: qHTS Assay for Inhibitors of the Phosphatase Activity of Eya2
# Details: recombinant Eya2, OMFP fluorescence dephosphorylation (OMFP is methylfluorescein phosphate); activity, negative = inhibition: at 76.9 µM (top of the series) unless noted
# Summary of the method: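 Eya2 protein (added as 0.2 uM solution) was preincubated with compound for 10 min at ambient temperature in 50 mM HEPES pH 7.5, 50 mM NaCl, 5 uM MgCl2, 0.05% BSA, 1 mM DTT. OMFP (added at 50 uM) then reacted 10 min; fluorescence read at 485/525 nm.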
# % is scaled to controls: 0 for no effect and ±100 for the full control effect; potency is read from the fitted curve at half-maximal effect.
SMILES,Potency,"activity, negative = inhibition"
O=C1C2C3C=CC(C3=C3CCCCC3)C2C(=O)N1c1ccccc1 (stereo not drawn),"inconclusive: 25.1 µM [inhibitor, single point]",–
CNS(=O)(=O)c1cc(Br)ccc1S(=O)c1ccccc1C(=O)O (stereo not drawn),"inconclusive: 89.1 µM [inhibitor, single point]",–
N#Cc1cccc2c1-c1ccccc1/C2=N/NC(N)=O,"inconclusive: 100 µM [inhibitor, single point]",–
COc1cccc(/C=N/NC(=O)COc2cccc3cccnc23)c1O,inactive,–
Cc1n[nH]c(C)c1N1C(=O)c2cccc3c(N4CCCCCC4)ccc(c23)C1=O,"inconclusive: 31.6 µM [activator, partial curve]",–
COc1ccc(C(OCC(O)CN(C)C2CCCCC2)c2ccc(OC)cc2)cc1 (stereo not drawn),"inconclusive: 20 µM [inhibitor, single point]",–
Cc1nc(OCc2ccccc2)c2ccccc2n1,"inconclusive: 22.4 µM [inhibitor, partial curve, poor fit]",–
COC(=O)CN1C(=O)S/C(=C/c2ccc(N3CCCCC3)o2)C1=O,"inconclusive: 50.1 µM [activator, partial curve]",–
Cc1ccc(C(=O)CC2(O)C(=O)N(Cc3ccccc3Cl)c3ccccc32)o1 (stereo not drawn),inactive,–
CCN(CC)c1ccc(/C=N/Nc2ccc(C)cc2)c(O)c1,inactive,–
NS(=O)(=O)Oc1ccccc1,"inconclusive: 20 µM [inhibitor, single point]",–
Cc1ccnc(NC(=O)c2ccc(OCc3c(C)noc3C)cc2)c1,inactive,–
CC(C)Cn1c(CN2CCN(C(=O)c3ccco3)CC2)nc2c1c(=O)n(C)c(=O)n2C,"inconclusive: 50.1 µM [inhibitor, partial curve]",–
O=C(COc1ccc(Cl)cc1)NC1=NN(c2ccccc2)C(=O)C1,inactive,–
COc1ccc(C(=O)COC(=O)CCCC(=O)NC2CCCCC2)cc1,inactive,–
Cc1c(C#N)c(NC(=O)CCl)n(Cc2ccc(F)cc2)c1C,inactive,–
COCCNC(=S)Nc1ccc(S(=O)(=O)Nc2cnc3ccccc3n2)cc1,"inconclusive: 100 µM [inhibitor, single point]",–
Cc1ccc(S(=O)(=O)n2cc(-c3ccccc3)c3ccccc32)cc1,inactive,–
CCCN(CC(=O)Nc1ccccc1C)C(=O)/C=C/c1ccc(S(=O)(=O)N2CCCCCC2)cc1,"inconclusive: 200 µM [inhibitor, single point]",–
COc1ccccc1/C=C/C(=O)NCC(=O)n1nc(C)cc1C,"inconclusive: 89.1 µM [inhibitor, single point]",–
CCc1ccc(/C=C2/SC(=S)NC2=O)cc1,inactive,–
COc1ccc(C(=O)Nc2nc(C)cs2)cc1S(=O)(=O)N1CCCC1,"inconclusive: 100 µM [inhibitor, single point]",–
CCOc1ccc(S(=O)(=O)NCCC(=O)N2CCN(c3ccc(OC)cc3)CC2)cc1,"inconclusive: 200 µM [inhibitor, single point]",–
CCC(C)NC(=O)CC(c1ccccc1)c1cc(C)ccc1O (stereo not drawn),"inconclusive: 56.2 µM [inhibitor, partial curve]",–
COc1ccc(CCNC(=O)C(=O)NCC2OCCN2S(=O)(=O)c2ccccc2)cc1 (stereo not drawn),"inconclusive: 22.4 µM [inhibitor, partial curve, poor fit]",–

SMILES,Potency,"activity, negative = inhibition"
COc1ccccc1NC(=O)c1ccc2c(c1)C(=O)N(Cc1ccco1)C2=O,inactive,–
CCN1/C(=C/c2ccc3ccc(C)cc3[n+]2CC)Sc2ccccc21,–,inconclusive: 48.4% [activator]
CN(CC(=O)Nc1ccc(N2CCOCC2)cc1)Cc1c(O)ccc2ccccc12,inactive,–
Cc1ccc(N(C(=O)c2ccco2)C(C(=O)NC2CCCC2)c2ccco2)c(C)c1 (stereo not drawn),"inconclusive: 50.1 µM [inhibitor, partial curve, poor fit]",–
CC(=O)N(C1CC(C)C(C#N)(C#N)C1(C#N)C#N)N(C)C (stereo not drawn),inactive,–
CN(C(=O)COC(=O)c1ccccc1C(=O)N1CCN(c2ccccc2)CC1)c1ccccc1,"inconclusive: 100 µM [inhibitor, single point]",–
Cc1cccc(NC(=O)N(C)Cc2cccs2)c1,inactive,–
CC1(C)OC(=O)C(=NNc2ccccc2[N+](=O)[O-])C(=O)O1,"inconclusive: 708 µM [inhibitor, single point]",–
C/C(Cn1nnc([N+](=O)[O-])n1)=N\NC(=O)c1ccc(C)cc1,inactive,–
Cc1ccccc1NC(NC(=O)c1cccs1)C(Cl)(Cl)Cl (stereo not drawn),inactive,–
Cn1cnnc1SCC(=O)N/N=C/c1ccc(OCC(N)=O)cc1,"inconclusive: 112 µM [inhibitor, single point]",–
Cc1ccc2cc(C#N)c(N3CCCN(C(=O)c4cnccn4)CC3)nc2c1,inactive,–
Fc1ccc(-c2csc(NC(=S)Nc3ccccc3)n2)cc1,"inconclusive: 158 µM [inhibitor, partial curve, poor fit]",–
CN1CCN(C(=O)c2ccc3c(=O)n(-c4ccc(F)cc4)c(=S)[nH]c3c2)CC1,"inconclusive: 28.2 µM [inhibitor, single point]",–
COC(=O)C(C)n1cnc2c(nnn2-c2ccc(F)cc2)c1=O (stereo not drawn),"inconclusive: 25.1 µM [inhibitor, single point]",–
O=C(CSc1nnc(-c2ccccc2)c(-c2ccccc2)n1)NCc1ccco1,inactive,–
COc1ccc(C(=O)NC(=S)NCc2ccccc2)cc1,inactive,–
Cc1ccc(S(=O)(=O)NC(=O)N2CCCN(Cc3ccc(F)cc3)CC2)cc1,"inconclusive: 100 µM [inhibitor, single point]",–
O=C(NC(=O)c1ccccc1N1CCCCC1)Nc1ccc(Br)cc1,"inconclusive: 100 µM [inhibitor, single point]",–
O=C(COc1ccc(Nc2ccccc2)cc1)OCC(=O)N1CCCCC1,"inconclusive: 17.8 µM [inhibitor, partial curve]",–
CCN(c1ccccc1)S(=O)(=O)c1ccc(C(=O)Nc2ccncc2)cc1,inactive,–
CCCc1nnc(NC(=O)CCC(=O)N2CCN(Cc3ccc(C)cc3C)CC2)s1,"inconclusive: 31.6 µM [inhibitor, single point]",–
COc1ccc(C23CC4CC(CC(C4)C2)C3)cc1C(=O)NCCN(C)C,inactive,–
CCOC(=O)Cn1cc([N+](=O)[O-])c(OC)n1,"inconclusive: 70.8 µM [inhibitor, single point]",–
CCn1c(-c2ccc([N+](=O)[O-])cc2)n[nH]c1=S,"inconclusive: 31.6 µM [inhibitor, single point]",–

SMILES,Potency,"activity, negative = inhibition"
CCOc1ncccc1C(=O)OCc1cccc([N+](=O)[O-])c1,"inconclusive: 112 µM [inhibitor, partial curve, poor fit]",–
Cn1cc([N+](=O)[O-])c(C(=O)Nc2ccc(Br)cn2)n1,"inconclusive: 25.1 µM [inhibitor, single point]",–
Cc1cc(S(=O)(=O)N2CCCC2)ccc1OCC(=O)NCc1ccco1,inactive,–
COc1ccc(CCNC(=O)CN2C(=O)NC(C)(c3ccc([N+](=O)[O-])cc3)C2=O)cc1 (stereo not drawn),"inconclusive: 224 µM [inhibitor, single point]",–
O=c1c2ccccc2nc2n1C(CSc1ccc(Cl)cc1)CN2 (stereo not drawn),"inconclusive: 79.4 µM [inhibitor, single point]",–
Cc1nc2ccccc2c2oc(C(=O)NCCCN3CC(C)CC(C)C3)cc12 (stereo not drawn),"inconclusive: 17.8 µM [inhibitor, single point]",–
Cc1cccc(C)c1NC(=O)NCc1ccco1,"inconclusive: 100 µM [inhibitor, partial curve]",–
CSC1=N/C(=C\c2ccc(F)cc2)C(=O)S1,inactive,–
O=C(CSc1nnc2ccccn12)NNC(=O)c1ccccc1F,"inconclusive: 89.1 µM [inhibitor, single point]",–
N#Cc1ccccc1OCC(=O)OCC(=O)N1CCN(C(=O)c2ccco2)CC1,"inconclusive: 100 µM [inhibitor, single point]",–
CCC(C)[C@H](N)c1cn([C@@H](CCCCN)C(=O)N2CCNCC2)nn1 (stereo partly drawn),"inconclusive: 22.4 µM [inhibitor, single point]",–
O=C(CCC(=O)Nc1ccc(F)cc1)N/N=C/c1cccc(Br)c1,inactive,–
CCc1ccc(C2C(C#N)=C(N)SC(N)=C2C#N)s1,–,inconclusive: 70.5% [activator]
COc1cc(/C=C2/SC(=S)N(CC3CCCO3)C2=O)ccc1O (stereo not drawn),inactive,–
CN(C)CCN[C@H]1CCC2C3CC=C4C[C@@H](O)CC[C@]4(C)C3CC[C@@]21C (stereo partly drawn),"inconclusive: 89.1 µM [inhibitor, single point]",–
Cc1cc(C)c(NC(=O)C[N+](C)(C)CC(O)COc2cccc3ccccc23)c(C)c1 (stereo not drawn),"inconclusive: 63.1 µM [inhibitor, single point]",–
CC1(C)C2CCC1(C)C(OC(=O)C[n+]1ccccc1)C2 (stereo not drawn),"inconclusive: 112 µM [inhibitor, partial curve, poor fit]",–
CCN(CC)c1ccc(/C=C(/C#N)c2nc3ccc(C)cc3[nH]2)c(OC(C)C)c1,"inconclusive: 100 µM [activator, partial curve]",–
COc1cc(/C=N/Nc2nncn2N)ccc1OCc1c(C)no[n+]1[O-],inactive,–
Cc1ccc(-c2ccc(=O)n(CC(=O)NCCN3CCCCC3C)n2)cc1 (stereo not drawn),"inconclusive: 25.1 µM [inhibitor, single point]",–
Cc1c(SCCO)c(=O)[nH]c2cc3c(cc12)OCO3,inactive,–
CC(C)(C)NC(=O)C(OC(=O)c1ccco1)c1ccccc1F (stereo not drawn),inactive,–
Cc1ccc(NC(=S)Nc2ccc(Br)cc2)cc1,"inconclusive: 22.4 µM [inhibitor, single point]",–

# An excerpt from above in order of number of heavy atoms, low to high:
SMILES,Potency,"activity, negative = inhibition"
CSC1=N/C(=C\c2ccc(F)cc2)C(=O)S1,inactive,–
Cc1ccc(NC(=S)Nc2ccc(Br)cc2)cc1,"inconclusive: 22.4 µM [inhibitor, single point]",–
CCc1ccc(C2C(C#N)=C(N)SC(N)=C2C#N)s1,–,inconclusive: 70.5% [activator]
CC1(C)C2CCC1(C)C(OC(=O)C[n+]1ccccc1)C2 (stereo not drawn),"inconclusive: 112 µM [inhibitor, partial curve, poor fit]",–
CCOc1ncccc1C(=O)OCc1cccc([N+](=O)[O-])c1,"inconclusive: 112 µM [inhibitor, partial curve, poor fit]",–
COc1cc(/C=C2/SC(=S)N(CC3CCCO3)C2=O)ccc1O (stereo not drawn),inactive,–
O=C(CSc1nnc2ccccn12)NNC(=O)c1ccccc1F,"inconclusive: 89.1 µM [inhibitor, single point]",–
CCC(C)[C@H](N)c1cn([C@@H](CCCCN)C(=O)N2CCNCC2)nn1 (stereo partly drawn),"inconclusive: 22.4 µM [inhibitor, single point]",–
CN(C)CCN[C@H]1CCC2C3CC=C4C[C@@H](O)CC[C@]4(C)C3CC[C@@]21C (stereo partly drawn),"inconclusive: 89.1 µM [inhibitor, single point]",–
Cc1ccc(-c2ccc(=O)n(CC(=O)NCCN3CCCCC3C)n2)cc1 (stereo not drawn),"inconclusive: 25.1 µM [inhibitor, single point]",–
Cc1nc2ccccc2c2oc(C(=O)NCCCN3CC(C)CC(C)C3)cc12 (stereo not drawn),"inconclusive: 17.8 µM [inhibitor, single point]",–
N#Cc1ccccc1OCC(=O)OCC(=O)N1CCN(C(=O)c2ccco2)CC1,"inconclusive: 100 µM [inhibitor, single point]",–
COc1ccc(CCNC(=O)CN2C(=O)NC(C)(c3ccc([N+](=O)[O-])cc3)C2=O)cc1 (stereo not drawn),"inconclusive: 224 µM [inhibitor, single point]",–

# Reference: PubChem BioAssay AID488837 (National Center for Advancing Translational Sciences (NCATS), 2010)
